These are yes or no findings as the source states them, for the method shown. In cells and extracts the contact can be indirect.
How the values were obtained:
TFEB = TFEB (UniProt P19484); experiment: co-IP; co-immunoprecipitation from cells under physiological conditions or under amino acid starvation (AA-star) stress; bait and cell line not stated in the main text
TFE3 = TFE3 (UniProt P19532); experiment: as above

By UniProt entry, the sequences of proteins in these tests, tags left out.
UniProt P19484: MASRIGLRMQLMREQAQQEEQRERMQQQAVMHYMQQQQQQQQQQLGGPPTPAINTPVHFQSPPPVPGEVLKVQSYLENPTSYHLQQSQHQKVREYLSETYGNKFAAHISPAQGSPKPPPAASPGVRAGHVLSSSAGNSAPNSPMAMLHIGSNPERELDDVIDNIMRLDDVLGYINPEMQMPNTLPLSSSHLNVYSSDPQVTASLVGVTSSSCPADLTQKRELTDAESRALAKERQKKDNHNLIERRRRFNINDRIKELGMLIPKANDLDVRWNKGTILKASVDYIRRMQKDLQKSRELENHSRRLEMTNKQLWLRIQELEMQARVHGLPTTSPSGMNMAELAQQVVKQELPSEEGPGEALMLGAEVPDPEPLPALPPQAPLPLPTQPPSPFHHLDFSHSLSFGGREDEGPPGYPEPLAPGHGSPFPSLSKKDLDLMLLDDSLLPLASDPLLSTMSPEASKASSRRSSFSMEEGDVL
UniProt P19532: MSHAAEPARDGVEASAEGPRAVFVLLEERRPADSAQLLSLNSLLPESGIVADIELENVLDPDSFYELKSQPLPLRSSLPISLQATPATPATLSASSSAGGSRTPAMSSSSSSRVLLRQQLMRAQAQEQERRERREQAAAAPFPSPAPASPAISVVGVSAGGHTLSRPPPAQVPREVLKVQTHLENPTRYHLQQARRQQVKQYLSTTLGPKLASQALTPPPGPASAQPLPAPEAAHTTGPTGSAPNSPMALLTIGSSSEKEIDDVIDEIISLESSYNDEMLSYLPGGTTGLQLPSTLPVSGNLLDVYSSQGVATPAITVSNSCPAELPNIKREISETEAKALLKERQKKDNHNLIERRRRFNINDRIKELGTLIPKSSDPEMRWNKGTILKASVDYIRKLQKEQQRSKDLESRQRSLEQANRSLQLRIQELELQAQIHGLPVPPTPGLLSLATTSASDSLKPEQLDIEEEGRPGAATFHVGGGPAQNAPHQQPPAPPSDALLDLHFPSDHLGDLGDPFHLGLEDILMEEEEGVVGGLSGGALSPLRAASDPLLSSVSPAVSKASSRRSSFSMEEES

B1: Menin (protein, UniProt O00255 1-610)
chain: MGLKAAQKTLFPLRSIDDVVRLFAAELGREEPDLVLLSLVLGFVEHFLAVNRVIPTNVPELTFQPSPAPDPPGGLTYFPVADLSIIAALYARFTAQIRGAVDLSLYPREGGVSSRELVKKVSDVIWNSLSRSYFKDRAHIQSLFSFITGTKLDSSGVAFAVVGACQALGLRDVHLALSEDHAWVVFGPNGEQTAEVTWHGKGNEDRRGQTVNAGVAERSWLYLKGSYMRCDRKMEVAFMVCAINPSIDLHTDSLELLQLQQKLLWLLYDLGHLERYPMALGNLADLEELEPTPGRPDPLTLYHKGIASAKTYYRDEHIYPYMYLAGYHCRNRNVREALQAWADTATVIQDYNYCREDEEIYKEFFEVANDVIPNLLKEAASLLEAGEERPGEQSQGTQSQGSALQDPECFAHLLRFYDGICKWEEGSPTPVLHVGWATFLVQSLGRFEGQVRQKVRIVSREAEAAEAEEPWGEEAREGRRRGPRRESKPEEPPPPKKPALDKGLGTGQGAVSGPPRKPPGTVAGTARGPEGGSTAQVPAPTASPPPEGPVLTFQSEKMKGMKELLVATKINSSAIKLQLTAQSQVQMKKQKVSTPSDYTLSFLKRQRKGL
B1 was tested. Which binding (TFEB) did it give?
The binding was “no binding”.

And the binding (TFE3)?
Its binding is “no binding”.
